We go through one molecule from patent US20050003403A1 (IBC PHARMACEUTICALS, published 2005).

By UniProt entry, the sequences of proteins in these tests, tags left out. Residues count along the entry.
UniProt P06731, residues 35-685: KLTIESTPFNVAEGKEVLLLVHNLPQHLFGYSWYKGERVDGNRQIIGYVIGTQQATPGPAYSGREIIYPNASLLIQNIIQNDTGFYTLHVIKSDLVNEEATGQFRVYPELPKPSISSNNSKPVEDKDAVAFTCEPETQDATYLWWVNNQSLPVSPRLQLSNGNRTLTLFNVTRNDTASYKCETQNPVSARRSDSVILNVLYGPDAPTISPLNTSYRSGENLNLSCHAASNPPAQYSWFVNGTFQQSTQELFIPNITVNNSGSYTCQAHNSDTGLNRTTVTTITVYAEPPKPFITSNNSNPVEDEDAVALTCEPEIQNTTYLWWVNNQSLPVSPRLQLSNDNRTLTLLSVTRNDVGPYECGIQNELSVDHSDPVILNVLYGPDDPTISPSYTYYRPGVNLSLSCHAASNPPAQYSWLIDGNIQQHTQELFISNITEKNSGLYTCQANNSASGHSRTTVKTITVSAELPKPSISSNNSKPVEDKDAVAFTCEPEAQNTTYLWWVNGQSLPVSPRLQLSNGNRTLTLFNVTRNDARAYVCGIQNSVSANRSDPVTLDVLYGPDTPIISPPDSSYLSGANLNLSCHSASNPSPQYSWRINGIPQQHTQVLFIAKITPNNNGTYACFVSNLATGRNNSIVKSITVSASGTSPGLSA

Results are given in words; binding and its absence hold for the method and conditions named. Some binding calls cover weakened binding; strength is not graded here.

Test [1] deals with carcinoembryonic antigen (CEA) (UniProt P06731). Put plainly: SE-HPLC of radioiodinated protein mixed with increasing amounts of CEA.
Test [2] shares this target. Description: competitive ELISA and BIAcore. On the technique in general: In an ELISA, binding on a coated surface is turned into a signal by an enzyme label.

B1: BS14HP (bispecific antibody)
chain 1: EAEAEFMEVQLVESGGDLVKPGGSLKLSCAASGFTFSIYTMSWLRQTPGKGLEWVATLSGDGDDIYYPDSVKGRFTISRDNAKNSLYLQMNSLRAEDTALYYCARVRLGDWDFDVWGQGTTVSVSSGGGGSDIQLTQSPSSLSASVGDRVTITCKASQDVGTSVAWYQQKPGKAPKLLIYWTSTRHTGVPSRFSGSGSGTDFTFTISSLQPEDIATYYCQQYSLYRSFGQGTKVEIKRLEGGGSEVQLVESGGGVVQPGRSLRLSCSASGFDFTTYWMSWVRQAPGKGLEWIGEIHPDSSTINYAPSLKDRFTISRDNAKNTLFLQMDSLRPEDTGVYFCASLYFGFPWFAYWGQGTPVTVSVDHHHHHH
chain 2: EAEAEFDIQLTQSPSSLSASVGDRVTITCKASQDVGTSVAWYQQKPGKAPKLLIYWTSTRHTGVPSRFSGSGSGTDFTFTISSLQPEDIATYYCQQYSLYRSFGQGTKVEIKRGGGQFMEVQLVESGGGVVQPGRSLRLSCSASGFDFTTYWMSWVRQAPGKGLEWIGEIHPDSSTINYAPSLKDRFTISRDNAKNTLFLQMDSLRPEDTGVYFCASLYFGFPWFAYWGQGTPVTVSGGGGSDIVMTQSPSSLAVSPGERVTLTCKSSQSLFNSRTRKNYLGWYQQKPGQSPKLLIYWASTRESGVPDRFSGSGSGTDFTLTINSLQAEDVAVYYCTQVYYLCTFGAGTKLELKRLDHHHHHH
notes: Non-covalent heterodimer with two CEA sites and one HSG site; The alpha-factor signal peptide is removed on secretion; also called bispecific trivalent heterodimer; hMN-14 x hMN-14 x 679 produced in Pichia pastoris
Consider B1, for which the binding result in test [1] and in test [2] was “binds” throughout.
